# Experimental data taken from PubChem BioAssay AID686970 (National Center for Advancing Translational Sciences (NCATS), 2013).
# Only a part is listed here, and it is no random draw. Inconclusive results are not listed. Calls of active or inactive are those of the source. Calls come from the whole dose curve; as a rule, active = well fitted cell-killing curve with a large enough effect; inconclusive = small, poorly fitted or top-dose-only effect, or effect the other way; inactive = flat fitted curve, though single readings scatter.
# Test: qHTS for induction of synthetic lethality in tumor cells producing 2HG: qHTS for the HT-1080-NT fibrosarcoma cell line; note: nearly all actives have a fitted effect of over 55% in size
# Settings: HT-1080-NT fibrosarcoma viability, CellTiter-Glo ATP luminescence, 48 h
# From the text: Unbiased genomic sequencing for 22 glioma genomes found recurrent mutation of IDH1 on chromosome 2q33, a gene encoding the cytosolic isoform of IDH1 associated with the tricarboxylic acid cycle (TCA) that catalyzes the oxidative decarboxylation of isocitrate, yielding alpha-ketoglutarate and CO2 via NADP+ to NADPH conversion. Subsequent studies confirmed the recurrent IDH mutations in up to 70% of secondary gliomas and in 10% of AML cases. In addition, the somatic mutation of cancer-associated IDH1 is a point mutation resulting in various amino-acid substituents at Arginine132 (IDH1 R132), a key residue found in the enzyme's active site that when mutated, results in the loss-of-function in metabolizing isocitrate but confers a gain-of-function to produce the oncometabolite 2-hydroxyglutarate (2HG). This in effect defines IDH1 as an oncogene and provides an extraordinary opportunity to discover chemical probes against mutant IDH1 that may translate into much needed new therapies for glioma and AML patients.
# This assay aims to perform a synthetic lethal screen for chemical probes specific for 2HG-producing tumor cells using matched paired cell lines (1) HT-1080-NT fibrosarcoma cell line that overproduces 2HG and (2) HT-1080-IDH1KD cell line which has IDH1 expression knocked-down. Desirable compounds are toxic to the NT fibrosarcoma cells but not to the IDH1KD cell line. […]
# Suspensions of trypsinized HT-1080-NT cells were dispensed into white, tissue culture-treated, solid 1536-well plates at 5uL/well (750 cells/well final concentration) in RPMI medium supplemented with 5% FBS. […] The plates were measured on a PerkinElmer ViewLux plate reader for luminescent signal (clear filter, 1 sec exp). […]
# Concentration-response curves were fitted to the signals arising from the resulting luminescence. The concentration-effect curves were then classified based on curve quality (r2), response magnitude and degree of measured activity, and compounds were subsequently categorized based on their curve class.
# Potency is the fitted concentration of half-maximal effect.
row,Structure (SMILES),Potency
1,COc1c(O)cc2c(c1OC)-c1ccc(SC)c(=O)cc1C(NC(C)=O)CC2 (stereo not drawn),active: 20.6 nM
2,COc1cc2c(c(OC)c1OC)-c1ccc(SC)c(=O)cc1C(NC(C)=O)CC2 (stereo not drawn),active: 9.2 nM
3,COc1c(O)cc2c(c1OC)-c1ccc(OC)c(=O)cc1C(NC(C)=O)CC2 (stereo not drawn),active: 14.6 nM
